Test results: doi:10.1101/2021.12.13.472381

Amino acid sequences for entries named in this document (tags omitted). A change or cut given only in a name is not applied to a line headed by its entry. Residues count along the entry.
UniProt Q8N6T7: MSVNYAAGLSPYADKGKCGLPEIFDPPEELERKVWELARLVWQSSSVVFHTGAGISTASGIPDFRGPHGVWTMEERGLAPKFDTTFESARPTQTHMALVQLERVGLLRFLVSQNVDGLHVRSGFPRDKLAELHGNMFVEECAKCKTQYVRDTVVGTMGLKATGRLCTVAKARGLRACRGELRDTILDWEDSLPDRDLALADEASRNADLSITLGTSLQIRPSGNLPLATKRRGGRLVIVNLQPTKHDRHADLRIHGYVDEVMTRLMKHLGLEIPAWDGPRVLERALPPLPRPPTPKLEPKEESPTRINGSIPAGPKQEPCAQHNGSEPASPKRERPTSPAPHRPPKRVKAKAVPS
UniProt P02545, residues 1-646: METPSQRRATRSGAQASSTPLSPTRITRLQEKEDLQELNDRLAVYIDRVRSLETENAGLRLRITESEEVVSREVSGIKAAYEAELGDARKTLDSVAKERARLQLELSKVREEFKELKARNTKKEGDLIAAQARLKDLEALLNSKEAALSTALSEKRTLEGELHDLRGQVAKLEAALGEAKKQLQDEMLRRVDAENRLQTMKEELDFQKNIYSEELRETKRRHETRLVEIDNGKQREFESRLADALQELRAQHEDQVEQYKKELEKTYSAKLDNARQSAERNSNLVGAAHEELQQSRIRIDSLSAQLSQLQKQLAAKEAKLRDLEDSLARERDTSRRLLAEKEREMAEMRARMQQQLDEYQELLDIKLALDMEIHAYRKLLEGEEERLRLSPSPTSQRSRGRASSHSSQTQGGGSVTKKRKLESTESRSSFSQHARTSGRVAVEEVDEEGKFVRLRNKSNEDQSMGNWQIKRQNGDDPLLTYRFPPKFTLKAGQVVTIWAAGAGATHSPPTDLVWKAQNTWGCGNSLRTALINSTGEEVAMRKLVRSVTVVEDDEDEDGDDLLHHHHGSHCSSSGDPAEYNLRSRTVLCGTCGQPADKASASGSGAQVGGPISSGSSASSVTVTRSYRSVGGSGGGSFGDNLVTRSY
UniProt P08670: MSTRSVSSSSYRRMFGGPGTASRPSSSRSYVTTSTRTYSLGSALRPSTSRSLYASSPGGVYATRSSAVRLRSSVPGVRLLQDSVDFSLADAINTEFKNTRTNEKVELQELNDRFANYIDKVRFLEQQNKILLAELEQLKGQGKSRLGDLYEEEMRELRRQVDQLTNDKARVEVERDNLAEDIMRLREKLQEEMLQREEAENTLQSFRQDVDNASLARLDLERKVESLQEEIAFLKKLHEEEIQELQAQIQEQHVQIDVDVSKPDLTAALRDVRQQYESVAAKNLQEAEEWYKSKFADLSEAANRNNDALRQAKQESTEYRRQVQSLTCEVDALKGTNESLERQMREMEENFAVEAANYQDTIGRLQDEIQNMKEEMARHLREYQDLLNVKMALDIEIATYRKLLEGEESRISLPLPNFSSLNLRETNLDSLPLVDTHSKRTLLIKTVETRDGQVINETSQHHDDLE
UniProt Q9NYF8: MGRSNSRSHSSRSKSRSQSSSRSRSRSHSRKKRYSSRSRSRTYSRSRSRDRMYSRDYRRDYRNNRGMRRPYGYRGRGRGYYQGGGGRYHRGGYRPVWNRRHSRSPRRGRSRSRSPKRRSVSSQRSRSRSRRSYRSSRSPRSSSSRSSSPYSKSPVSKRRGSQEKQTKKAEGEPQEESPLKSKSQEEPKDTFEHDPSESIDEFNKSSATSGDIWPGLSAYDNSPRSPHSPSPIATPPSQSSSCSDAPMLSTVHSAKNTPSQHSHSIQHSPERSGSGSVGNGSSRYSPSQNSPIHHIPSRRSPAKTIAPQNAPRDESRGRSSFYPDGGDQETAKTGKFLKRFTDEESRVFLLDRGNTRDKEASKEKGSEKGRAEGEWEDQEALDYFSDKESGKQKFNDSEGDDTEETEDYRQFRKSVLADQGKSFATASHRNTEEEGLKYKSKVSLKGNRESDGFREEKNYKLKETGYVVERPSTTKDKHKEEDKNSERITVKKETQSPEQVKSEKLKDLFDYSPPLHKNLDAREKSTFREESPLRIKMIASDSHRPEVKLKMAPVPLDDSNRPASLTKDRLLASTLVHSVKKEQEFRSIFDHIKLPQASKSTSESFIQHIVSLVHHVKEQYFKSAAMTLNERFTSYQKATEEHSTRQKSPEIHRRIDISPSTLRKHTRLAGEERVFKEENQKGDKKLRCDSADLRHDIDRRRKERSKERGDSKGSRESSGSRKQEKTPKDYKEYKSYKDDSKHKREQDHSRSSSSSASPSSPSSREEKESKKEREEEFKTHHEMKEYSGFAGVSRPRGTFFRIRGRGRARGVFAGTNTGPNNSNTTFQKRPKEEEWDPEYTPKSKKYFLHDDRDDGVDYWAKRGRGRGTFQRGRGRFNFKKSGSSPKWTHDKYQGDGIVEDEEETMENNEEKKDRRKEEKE
UniProt P16401: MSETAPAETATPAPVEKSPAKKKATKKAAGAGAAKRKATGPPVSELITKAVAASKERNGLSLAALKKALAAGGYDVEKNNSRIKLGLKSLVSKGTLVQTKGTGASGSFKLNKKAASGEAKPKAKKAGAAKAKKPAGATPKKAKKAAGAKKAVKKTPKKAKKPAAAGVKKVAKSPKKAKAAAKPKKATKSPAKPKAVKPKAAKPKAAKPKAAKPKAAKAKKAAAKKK
UniProt P35637: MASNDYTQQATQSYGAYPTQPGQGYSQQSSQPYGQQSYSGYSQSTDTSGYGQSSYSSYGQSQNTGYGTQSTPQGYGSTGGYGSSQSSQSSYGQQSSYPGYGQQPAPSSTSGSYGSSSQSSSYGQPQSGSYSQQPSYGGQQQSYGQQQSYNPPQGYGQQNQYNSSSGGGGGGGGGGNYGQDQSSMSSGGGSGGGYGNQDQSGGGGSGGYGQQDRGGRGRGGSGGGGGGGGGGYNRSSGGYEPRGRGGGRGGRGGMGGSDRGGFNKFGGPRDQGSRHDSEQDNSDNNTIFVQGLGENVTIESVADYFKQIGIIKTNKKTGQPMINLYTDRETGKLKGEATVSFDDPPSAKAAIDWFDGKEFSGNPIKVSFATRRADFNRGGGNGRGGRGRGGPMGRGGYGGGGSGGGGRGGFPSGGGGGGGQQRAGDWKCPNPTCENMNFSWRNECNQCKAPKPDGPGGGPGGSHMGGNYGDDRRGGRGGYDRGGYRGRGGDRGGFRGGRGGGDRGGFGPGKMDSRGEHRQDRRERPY
UniProt Q15717: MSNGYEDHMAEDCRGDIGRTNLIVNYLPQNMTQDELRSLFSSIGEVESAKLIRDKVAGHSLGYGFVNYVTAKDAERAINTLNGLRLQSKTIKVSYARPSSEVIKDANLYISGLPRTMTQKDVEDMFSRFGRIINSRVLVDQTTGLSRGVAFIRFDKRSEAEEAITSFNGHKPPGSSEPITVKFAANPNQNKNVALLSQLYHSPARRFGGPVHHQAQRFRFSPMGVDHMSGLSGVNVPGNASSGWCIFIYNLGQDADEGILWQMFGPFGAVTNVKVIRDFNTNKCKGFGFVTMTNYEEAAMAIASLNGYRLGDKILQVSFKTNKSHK

Experiments:
Assay in all cases: affinity purification with mass spectrometry
[1] = target: centSIRT6 (SIRT6 N308K/A313S, centenarian allele) (human) (UniProt Q8N6T7)
[2] = target: wild type SIRT6 (Sirtuin 6) (human) (UniProt Q8N6T7)
[3] = target: Lamin A/C (LMNA) (human (endogenous in HCA2 fibroblasts)) (UniProt P02545)
[4] = target: Lamin A/C (LMNA) (human (endogenous in HCA2 fibroblasts)) (UniProt P02545); remark: listed apart in the source

binding [1]: binds | binding [2]: binds
Molecule: vimentin (VIME) (from UniProt P08670 1-466)

binding [3]: binds
Molecule: BCLAF1 (from UniProt Q9NYF8 1-920)

binding [3]: binds | binding [1]: binds | binding [2]: binds
Molecule: H1.5 (from UniProt P16401 1-226)

binding [1]: binds | binding [2]: binds
Molecule: Lamin A/C (LMNA) (from UniProt P02545 1-646)

binding [3]: binds
Molecule: FUS (from UniProt P35637 1-526)

binding [3]: binds
Molecule: ELAVL1 (from UniProt Q15717 1-326)

binding [4]: binds
B1: U2AFBP (protein, UniProt Q01081 1-240)
chain: MAEYLASIFGTEKDKVNCSFYFKIGACRHGDRCSRLHNKPTFSQTIALLNIYRNPQNSSQSADGLRCAVSDVEMQEHYDEFFEEVFTEMEEKYGEVEEMNVCDNLGDHLVGNVYVKFRREEDAEKAVIDLNNRWFNGQPIHAELSPVTDFREACCRQYEMGECTRGGFCNFMHLKPISRELRRELYGRRRKKHRSRSRSRERRSRSRDRGRGGGGGGGGGGGGRERDRRRSRDRERSGRF

binding [4]: binds
B2: THRAP3 (protein, UniProt Q9Y2W1 1-955)
chain: MSKTNKSKSGSRSSRSRSASRSRSRSFSKSRSRSRSLSRSRKRRLSSRSRSRSYSPAHNRERNHPRVYQNRDFRGHNRGYRRPYYFRGRNRGFYPWGQYNRGGYGNYRSNWQNYRQAYSPRRGRSRSRSPKRRSPSPRSRSHSRNSDKSSSDRSRRSSSSRSSSNHSRVESSKRKSAKEKKSSSKDSRPSQAAGDNQGDEAKEQTFSGGTSQDTKASESSKPWPDATYGTGSASRASAVSELSPRERSPALKSPLQSVVVRRRSPRPSPVPKPSPPLSSTSQMGSTLPSGAGYQSGTHQGQFDHGSGSLSPSKKSPVGKSPPSTGSTYGSSQKEESAASGGAAYTKRYLEEQKTENGKDKEQKQTNTDKEKIKEKGSFSDTGLGDGKMKSDSFAPKTDSEKPFRGSQSPKRYKLRDDFEKKMADFHKEEMDDQDKDKAKGRKESEFDDEPKFMSKVIGANKNQEEEKSGKWEGLVYAPPGKEKQRKTEELEEESFPERSKKEDRGKRSEGGHRGFVPEKNFRVTAYKAVQEKSSSPPPRKTSESRDKLGAKGDFPTGKSSFSITREAQVNVRMDSFDEDLARPSGLLAQERKLCRDLVHSNKKEQEFRSIFQHIQSAQSQRSPSELFAQHIVTIVHHVKEHHFGSSGMTLHERFTKYLKRGTEQEAAKNKKSPEIHRRIDISPSTFRKHGLAHDEMKSPREPGYKAEGKYKDDPVDLRLDIERRKKHKERDLKRGKSRESVDSRDSSHSRERSAEKTEKTHKGSKKQKKHRRARDRSRSSSSSSQSSHSYKAEEYTEETEEREESTTGFDKSRLGTKDFVGPSERGGGRARGTFQFRARGRGWGRGNYSGNNNNNSNNDFQKRNREEEWDPEYTPKSKKYYLHDDREGEGSDKWVSRGRGRGAFPRGRGRFMFRKSSTSPKWAHDKFSGEEGEIEDDESGTENREEKDNIQPTTE

binding [4]: binds
B3: SRSF3 (protein, UniProt P84103 1-164)
chain: MHRDSCPLDCKVYVGNLGNNGNKTELERAFGYYGPLRSVWVARNPPGFAFVEFEDPRDAADAVRELDGRTLCGCRVRVELSNGEKRSRNRGPPPSWGRRPRDDYRRRSPPPRRRSPRRRSFSRSRSRSLSRDRRRERSLSRERNHKPSRSFSRSRSRSRSNERK

binding [4]: binds
B4: TFIP11 (protein, UniProt Q9UBB9 1-837)
chain: MSLSHLYRDGEGRIDDDDDERENFEITDWDLQNEFNPNRQRHWQTKEEATYGVWAERDSDDERPSFGGKRARDYSAPVNFISAGLKKGAAEEAELEDSDDEEKPVKQDDFPKDFGPRKLKTGGNFKPSQKGFAGGTKSFMDFGSWERHTKGIGQKLLQKMGYVPGRGLGKNAQGIINPIEAKQRKGKGAVGAYGSERTTQSMQDFPVVDSEEEAEEEFQKELSQWRKDPSGSKKKPKYSYKTVEELKAKGRISKKLTAPQKELSQVKVIDMTGREQKVYYSYSQISHKHNVPDDGLPLQSQQLPQSGKEAKAPGFALPELEHNLQLLIDLTEQEIIQNDRQLQYERDMVVNLFHELEKMTEVLDHEERVISNLSKVLEMVEECERRMQPDCSNPLTLDECARIFETLQDKYYEEYRMSDRVDLAVAIVYPLMKEYFKEWDPLKDCTYGTEIISKWKSLLENDQLLSHGGQDLSADAFHRLIWEVWMPFVRNIVTQWQPRNCDPMVDFLDSWVHIIPVWILDNILDQLIFPKLQKEVENWNPLTDTVPIHSWIHPWLPLMQARLEPLYSPIRSKLSSALQKWHPSDSSAKLILQPWKDVFTPGSWEAFMVKNIVPKLGMCLGELVINPHQQHMDAFYWVIDWEGMISVSSLVGLLEKHFFPKWLQVLCSWLSNSPNYEEITKWYLGWKSMFSDQVLAHPSVKDKFNEALDIMNRAVSSNVGAYMQPGARENIAYLTHTERRKDFQYEAMQERREAENMAQRGIGVAASSVPMNFKDLIETKAEEHNIVFMPVIGKRHEGKQLYTFGRIVIYIDRGVVFVQGEKTWVPTSLQSLIDMAK

Read-outs that look alike come from different tables or passages of the source. Results are given in words; binding and its absence hold for the method and conditions named. In cells and extracts the contact can be indirect. A yes stands for co-enrichment or nearness to the bait. Other partners may have been found. One block for each molecule: values may come before it.
